Data published in the supplement of paper PMC10849652.
Some of the results follow.

Sequences of proteins named here, by UniProt entry; tags and fusion partners are left off. A change or cut given only in a name is not applied to a line headed by its entry.
UniProt Q14153: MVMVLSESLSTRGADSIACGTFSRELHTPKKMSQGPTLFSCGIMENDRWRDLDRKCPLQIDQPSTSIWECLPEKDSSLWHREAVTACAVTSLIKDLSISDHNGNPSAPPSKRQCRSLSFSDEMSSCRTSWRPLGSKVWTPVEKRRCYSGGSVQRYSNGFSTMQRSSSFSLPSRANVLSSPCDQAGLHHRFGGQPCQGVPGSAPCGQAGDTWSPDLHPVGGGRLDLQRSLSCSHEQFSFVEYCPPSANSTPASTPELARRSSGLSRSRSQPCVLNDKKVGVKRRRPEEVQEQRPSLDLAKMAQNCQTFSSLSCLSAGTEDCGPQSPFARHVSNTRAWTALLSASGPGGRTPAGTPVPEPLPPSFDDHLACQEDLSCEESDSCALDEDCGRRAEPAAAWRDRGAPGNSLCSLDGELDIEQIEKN
UniProt P38117: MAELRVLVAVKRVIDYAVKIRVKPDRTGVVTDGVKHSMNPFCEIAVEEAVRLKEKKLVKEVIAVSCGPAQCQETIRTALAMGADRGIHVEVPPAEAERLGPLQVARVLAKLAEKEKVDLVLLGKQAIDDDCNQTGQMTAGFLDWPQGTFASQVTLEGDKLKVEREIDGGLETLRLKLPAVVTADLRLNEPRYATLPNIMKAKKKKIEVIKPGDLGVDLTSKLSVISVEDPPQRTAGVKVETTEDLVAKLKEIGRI
UniProt Q5HYJ3: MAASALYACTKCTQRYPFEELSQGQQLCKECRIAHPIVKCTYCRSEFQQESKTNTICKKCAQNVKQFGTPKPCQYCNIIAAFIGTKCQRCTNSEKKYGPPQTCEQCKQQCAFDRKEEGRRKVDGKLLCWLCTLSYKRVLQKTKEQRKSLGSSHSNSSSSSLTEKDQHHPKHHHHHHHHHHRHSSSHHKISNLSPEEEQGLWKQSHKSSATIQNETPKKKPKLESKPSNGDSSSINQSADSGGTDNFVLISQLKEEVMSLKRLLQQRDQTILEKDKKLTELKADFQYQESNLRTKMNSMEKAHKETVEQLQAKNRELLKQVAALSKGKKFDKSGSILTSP
UniProt Q7Z309: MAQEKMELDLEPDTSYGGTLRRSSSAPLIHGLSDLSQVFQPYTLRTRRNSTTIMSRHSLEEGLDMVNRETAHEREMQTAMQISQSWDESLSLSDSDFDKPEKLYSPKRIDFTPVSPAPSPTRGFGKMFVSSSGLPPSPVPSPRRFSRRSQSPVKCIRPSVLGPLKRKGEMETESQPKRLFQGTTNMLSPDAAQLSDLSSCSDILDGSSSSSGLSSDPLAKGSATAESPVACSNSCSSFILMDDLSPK
UniProt Q9BYI3: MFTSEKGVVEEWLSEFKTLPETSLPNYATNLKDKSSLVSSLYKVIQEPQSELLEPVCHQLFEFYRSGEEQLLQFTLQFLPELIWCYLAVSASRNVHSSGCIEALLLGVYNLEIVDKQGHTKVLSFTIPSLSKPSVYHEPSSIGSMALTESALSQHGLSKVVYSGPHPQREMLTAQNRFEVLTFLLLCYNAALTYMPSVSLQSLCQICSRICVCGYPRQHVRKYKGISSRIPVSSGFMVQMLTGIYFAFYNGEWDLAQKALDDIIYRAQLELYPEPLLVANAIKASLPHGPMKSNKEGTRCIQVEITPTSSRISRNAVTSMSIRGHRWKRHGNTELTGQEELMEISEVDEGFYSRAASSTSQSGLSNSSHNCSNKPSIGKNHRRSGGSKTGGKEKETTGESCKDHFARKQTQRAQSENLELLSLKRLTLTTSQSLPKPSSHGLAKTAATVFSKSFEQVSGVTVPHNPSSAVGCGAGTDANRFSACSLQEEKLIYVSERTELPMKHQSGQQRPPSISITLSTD
UniProt Q6IPR1: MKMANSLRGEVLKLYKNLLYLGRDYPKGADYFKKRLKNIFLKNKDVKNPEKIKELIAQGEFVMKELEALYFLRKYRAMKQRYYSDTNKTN
UniProt Q9UQ84: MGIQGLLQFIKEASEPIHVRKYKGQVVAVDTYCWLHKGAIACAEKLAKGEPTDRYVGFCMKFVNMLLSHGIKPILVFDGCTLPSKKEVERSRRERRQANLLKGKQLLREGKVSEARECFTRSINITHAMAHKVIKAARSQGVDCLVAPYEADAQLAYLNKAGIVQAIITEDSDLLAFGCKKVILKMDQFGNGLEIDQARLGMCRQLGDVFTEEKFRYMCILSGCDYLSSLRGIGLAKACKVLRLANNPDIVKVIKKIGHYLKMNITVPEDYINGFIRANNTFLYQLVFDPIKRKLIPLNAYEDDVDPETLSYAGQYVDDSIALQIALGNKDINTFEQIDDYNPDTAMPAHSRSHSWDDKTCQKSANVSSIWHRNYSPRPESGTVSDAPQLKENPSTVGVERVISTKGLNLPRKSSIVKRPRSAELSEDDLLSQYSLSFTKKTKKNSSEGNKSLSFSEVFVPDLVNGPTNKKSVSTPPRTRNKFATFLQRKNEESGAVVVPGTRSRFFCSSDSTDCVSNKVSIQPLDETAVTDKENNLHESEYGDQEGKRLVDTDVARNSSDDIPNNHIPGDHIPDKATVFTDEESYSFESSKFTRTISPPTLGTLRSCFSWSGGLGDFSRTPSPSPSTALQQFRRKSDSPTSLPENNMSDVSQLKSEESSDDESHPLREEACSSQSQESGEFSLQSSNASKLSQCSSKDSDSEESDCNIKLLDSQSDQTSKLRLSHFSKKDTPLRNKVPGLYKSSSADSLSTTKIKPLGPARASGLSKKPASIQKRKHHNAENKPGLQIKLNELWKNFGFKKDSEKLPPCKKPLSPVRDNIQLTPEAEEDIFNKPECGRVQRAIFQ
UniProt Q8N8J7: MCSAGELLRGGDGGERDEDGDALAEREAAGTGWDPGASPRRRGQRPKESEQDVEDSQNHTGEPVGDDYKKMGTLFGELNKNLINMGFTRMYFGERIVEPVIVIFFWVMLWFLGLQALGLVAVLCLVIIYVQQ
UniProt Q9NYF3: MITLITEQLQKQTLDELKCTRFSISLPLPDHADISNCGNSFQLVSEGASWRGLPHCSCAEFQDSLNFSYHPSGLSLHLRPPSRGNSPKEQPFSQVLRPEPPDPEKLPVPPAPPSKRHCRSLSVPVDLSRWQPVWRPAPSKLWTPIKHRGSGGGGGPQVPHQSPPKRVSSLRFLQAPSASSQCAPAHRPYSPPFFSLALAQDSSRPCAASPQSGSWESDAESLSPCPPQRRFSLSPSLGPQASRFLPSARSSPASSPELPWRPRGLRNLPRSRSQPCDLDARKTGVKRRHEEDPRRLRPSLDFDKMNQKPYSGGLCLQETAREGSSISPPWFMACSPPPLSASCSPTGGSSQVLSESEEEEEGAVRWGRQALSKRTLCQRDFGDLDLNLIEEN
UniProt Q8N0U4: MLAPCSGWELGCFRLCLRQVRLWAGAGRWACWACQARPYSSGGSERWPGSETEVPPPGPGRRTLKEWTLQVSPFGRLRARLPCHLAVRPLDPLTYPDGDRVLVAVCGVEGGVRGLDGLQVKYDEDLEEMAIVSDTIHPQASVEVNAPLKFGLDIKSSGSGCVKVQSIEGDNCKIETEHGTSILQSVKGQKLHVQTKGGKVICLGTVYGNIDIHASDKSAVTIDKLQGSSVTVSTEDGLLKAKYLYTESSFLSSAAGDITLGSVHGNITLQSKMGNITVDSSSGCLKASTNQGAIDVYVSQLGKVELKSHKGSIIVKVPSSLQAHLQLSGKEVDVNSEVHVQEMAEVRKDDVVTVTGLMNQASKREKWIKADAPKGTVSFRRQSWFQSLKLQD
UniProt Q9UI08, whole entry, looked up: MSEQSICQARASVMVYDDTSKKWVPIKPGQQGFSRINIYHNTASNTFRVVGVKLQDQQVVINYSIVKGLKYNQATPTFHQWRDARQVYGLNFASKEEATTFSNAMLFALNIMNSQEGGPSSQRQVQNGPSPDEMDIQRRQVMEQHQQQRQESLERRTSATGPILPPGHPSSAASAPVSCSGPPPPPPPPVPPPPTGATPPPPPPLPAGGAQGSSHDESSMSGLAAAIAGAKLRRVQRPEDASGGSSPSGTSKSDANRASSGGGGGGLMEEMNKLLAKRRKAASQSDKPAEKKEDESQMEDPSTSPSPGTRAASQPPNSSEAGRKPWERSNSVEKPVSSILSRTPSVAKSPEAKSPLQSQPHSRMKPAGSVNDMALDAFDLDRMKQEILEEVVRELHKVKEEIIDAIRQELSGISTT
UniProt Q9HBU6: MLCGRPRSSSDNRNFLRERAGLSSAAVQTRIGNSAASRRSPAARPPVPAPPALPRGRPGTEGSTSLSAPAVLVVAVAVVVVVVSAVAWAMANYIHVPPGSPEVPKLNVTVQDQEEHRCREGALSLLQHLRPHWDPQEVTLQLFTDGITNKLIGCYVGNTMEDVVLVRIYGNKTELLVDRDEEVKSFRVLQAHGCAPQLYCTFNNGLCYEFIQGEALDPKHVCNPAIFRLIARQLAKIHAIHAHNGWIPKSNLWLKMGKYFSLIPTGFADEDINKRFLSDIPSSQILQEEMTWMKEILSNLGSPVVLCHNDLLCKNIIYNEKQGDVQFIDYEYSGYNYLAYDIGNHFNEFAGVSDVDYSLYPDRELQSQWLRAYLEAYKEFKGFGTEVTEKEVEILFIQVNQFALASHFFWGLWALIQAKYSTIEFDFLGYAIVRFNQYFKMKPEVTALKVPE
UniProt O95571: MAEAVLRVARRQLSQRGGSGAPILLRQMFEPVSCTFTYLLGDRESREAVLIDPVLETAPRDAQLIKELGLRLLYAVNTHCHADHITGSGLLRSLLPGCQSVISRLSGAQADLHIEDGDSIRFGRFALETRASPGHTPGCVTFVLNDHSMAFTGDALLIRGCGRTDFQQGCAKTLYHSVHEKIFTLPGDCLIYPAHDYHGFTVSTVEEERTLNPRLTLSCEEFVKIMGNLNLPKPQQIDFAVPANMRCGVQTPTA
UniProt Q15024, whole entry, looked up: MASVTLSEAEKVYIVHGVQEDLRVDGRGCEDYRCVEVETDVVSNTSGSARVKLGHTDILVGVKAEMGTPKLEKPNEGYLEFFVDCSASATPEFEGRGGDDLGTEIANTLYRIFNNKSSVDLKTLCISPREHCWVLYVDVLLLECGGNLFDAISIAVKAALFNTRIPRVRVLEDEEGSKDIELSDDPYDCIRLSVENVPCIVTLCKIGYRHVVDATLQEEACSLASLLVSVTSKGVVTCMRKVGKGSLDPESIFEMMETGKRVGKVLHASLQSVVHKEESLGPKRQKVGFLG
UniProt Q8N128: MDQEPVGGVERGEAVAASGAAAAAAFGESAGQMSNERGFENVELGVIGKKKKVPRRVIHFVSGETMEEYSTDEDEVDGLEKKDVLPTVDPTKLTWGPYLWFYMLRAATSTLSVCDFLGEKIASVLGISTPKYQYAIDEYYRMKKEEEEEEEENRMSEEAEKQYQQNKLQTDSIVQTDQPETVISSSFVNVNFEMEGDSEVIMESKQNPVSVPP
UniProt Q9Y3B2, whole entry, looked up: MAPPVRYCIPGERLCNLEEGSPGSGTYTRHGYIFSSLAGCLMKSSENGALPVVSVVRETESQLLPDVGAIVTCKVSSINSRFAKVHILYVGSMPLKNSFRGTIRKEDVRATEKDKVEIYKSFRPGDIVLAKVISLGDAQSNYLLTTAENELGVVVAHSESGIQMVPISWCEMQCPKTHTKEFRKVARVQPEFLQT
UniProt P16930: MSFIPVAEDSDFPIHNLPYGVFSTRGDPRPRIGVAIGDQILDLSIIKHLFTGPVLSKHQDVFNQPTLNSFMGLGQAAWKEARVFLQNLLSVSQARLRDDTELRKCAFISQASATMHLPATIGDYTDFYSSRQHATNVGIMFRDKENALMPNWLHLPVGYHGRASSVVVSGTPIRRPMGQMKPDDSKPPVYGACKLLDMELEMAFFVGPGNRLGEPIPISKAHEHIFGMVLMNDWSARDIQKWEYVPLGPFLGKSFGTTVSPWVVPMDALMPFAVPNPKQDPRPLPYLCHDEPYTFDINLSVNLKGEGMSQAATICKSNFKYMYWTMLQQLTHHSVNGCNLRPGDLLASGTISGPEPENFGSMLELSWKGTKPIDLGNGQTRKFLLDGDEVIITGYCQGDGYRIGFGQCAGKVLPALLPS
UniProt Q8IXR5: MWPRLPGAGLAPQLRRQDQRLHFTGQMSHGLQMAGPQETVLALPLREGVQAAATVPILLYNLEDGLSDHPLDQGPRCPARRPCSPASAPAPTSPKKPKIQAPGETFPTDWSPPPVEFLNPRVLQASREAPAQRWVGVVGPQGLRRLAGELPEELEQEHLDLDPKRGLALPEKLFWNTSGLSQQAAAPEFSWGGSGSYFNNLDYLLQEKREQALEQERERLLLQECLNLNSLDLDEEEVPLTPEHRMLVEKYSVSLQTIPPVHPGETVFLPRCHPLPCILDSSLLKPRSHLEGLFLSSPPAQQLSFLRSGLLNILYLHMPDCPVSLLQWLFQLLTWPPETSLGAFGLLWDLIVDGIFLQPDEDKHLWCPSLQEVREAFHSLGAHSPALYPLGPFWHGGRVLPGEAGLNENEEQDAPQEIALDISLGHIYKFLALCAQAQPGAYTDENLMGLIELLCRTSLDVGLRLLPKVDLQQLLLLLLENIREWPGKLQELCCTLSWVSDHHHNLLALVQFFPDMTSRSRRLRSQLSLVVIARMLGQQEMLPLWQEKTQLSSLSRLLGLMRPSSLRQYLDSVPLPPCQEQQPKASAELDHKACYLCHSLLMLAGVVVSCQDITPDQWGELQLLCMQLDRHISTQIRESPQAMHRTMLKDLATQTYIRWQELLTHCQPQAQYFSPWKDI

Tests used:
Experiment in all cases: log2 fold change, soluble protein after heating vs DMSO (PISA); higher = thermal stabilisation; K562 lysate, 10 uM; active = over 0.2 and 3.5 SD of the protein, either way, in both replicates (recomputed)
alvocidib = compound: CN1CC[C@H](c2c(O)cc(O)c3c(=O)cc(-c4ccccc4Cl)oc23)[C@H](O)C1 [alvocidib]
Outline: (§1)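 K562 pellets were dounce-homogenised in PBS pH 7.4 with 1 mM MgCl2, and the crude extract at 1 mg/mL protein was treated with 10 μM compound for 30 min. Aliquots were heated for 3 min across 48°C-58°C, pooled, and brought to 0.5% NP-40 at 4°C; soluble protein was the supernatant after 21,000xg for 90 min. Soluble protein was quantified by TMTpro 16plex LC-MS/MS with channel sums equalised, and reported as log2 fold change in thermal stability against DMSO controls, with values from duplicates.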

Tubastatin A = compound: CN1CCc2c(c3ccccc3n2Cc2ccc(C(=O)NO)cc2)C1 [Tubastatin A]
Outline: as §1

[1] = compound: CNC(=O)C1=CC=CC=C1NC2=NC(=NC=C2Cl)NC3=C(C=C(C=C3)N4CCOCC4)OC
Outline: as §1

defactinib = compound: CNC(=O)c1ccc(Nc2ncc(C(F)(F)F)c(NCc3nccnc3N(C)S(C)(=O)=O)n2)cc1 [defactinib]
Outline: as §1

[2] = compound: CNc1nc(-c2ccc3c(N)n[nH]c3c2)cc(N2C[C@@H](C(=O)NC3CCCCC3)CC[C@H]2C)n1
Outline: as §1

encorafenib = compound: COC(=O)N[C@@H](C)CNc1nccc(-c2cn(C(C)C)nc2-c2cc(Cl)cc(NS(C)(=O)=O)c2F)n1 [encorafenib]
Outline: as §1

[3] = compound: COC(=O)[C@H](CCSC)NC(=O)C1=C(C=C(C=C1)NC[C@H](CS)N)C2=CC=CC=C2
Outline: as §1

alisertib = compound: COc1cc(Nc2ncc3c(n2)-c2ccc(Cl)cc2C(c2c(F)cccc2OC)=NC3)ccc1C(=O)O [alisertib]
Outline: as §1

gefitinib = compound: COc1cc2ncnc(Nc3ccc(F)c(Cl)c3)c2cc1OCCCN1CCOCC1 [gefitinib]
Outline: as §1

[4] = compound: COc1cc2nc(-c3cc(F)ccc3O)nc(N[C@@H]3CNC[C@H]3C(C)(C)O)c2cc1OC
Outline: as §1

Row | Target | log2 fold change (alvocidib) | log2 fold change (Tubastatin A) | log2 fold change [1] | log2 fold change (defactinib) | log2 fold change [2] | log2 fold change (encorafenib) | log2 fold change [3] | log2 fold change (alisertib) | log2 fold change (gefitinib) | log2 fold change [4]
1 | FAM53B (UniProt Q14153) | inactive: -0.125 | active: 0.473 | inactive: 0.098 | inactive: 0.025 | inactive: -0.064 | inactive: 0.019 | inactive: -0.1 | inactive: -0.04 | inactive: -0.075 | –
2 | ETFB (UniProt P38117) | inactive: -0.026 | inactive: 0.076 | inactive: -0.053 | inactive: -0.037 | inactive: 0.026 | inactive: -0.05 | inactive: -0.03 | inactive: 0.019 | inactive: 0.011 | inactive: -0.014
3 | FAM76B (UniProt Q5HYJ3) | inactive: -0.019 | inactive: 0.012 | inactive: 0.068 | inactive: 0.076 | inactive: -0.002 | inactive: 0.013 | inactive: -0.146 | inactive: -0.02 | inactive: -0.018 | inactive: 0.016
4 | FAM49A (UniProt Q9H0Q0) | inactive: -0.068 | inactive: -0.404 | inactive: 0.031 | inactive: -0.092 | – | inactive: -0.056 | inactive: 0.032 | inactive: -0.171 | inactive: -0.031 | inactive: 0.04
5 | FAM122B isoform 3 (UniProt Q7Z309) | inactive: -0.163 | inactive: -0.009 | inactive: 0.11 | inactive: -0.169 | inactive: -0.047 | inactive: 0.213 | inactive: 0 | – | – | inactive: 0.076
6 | FAM126A (UniProt Q9BYI3) | inactive: -0.056 | inactive: -0.098 | inactive: 0.11 | inactive: -0.072 | inactive: -0.073 | – | – | inactive: -0.098 | inactive: 0.002 | inactive: 0.097
7 | EVI5 isoform 2 (UniProt O60447) | inactive: -0.02 | inactive: -0.156 | inactive: -0.055 | inactive: 0.108 | inactive: 0.019 | inactive: 0.734 | inactive: -0.02 | inactive: 0.041 | inactive: -0.034 | inactive: -0.098
8 | ETV4 (UniProt P43268) | inactive: 0.092 | inactive: -0.022 | inactive: -0.099 | inactive: 0.011 | – | inactive: 0.102 | inactive: -0.145 | inactive: -0.06 | inactive: -0.055 | –
9 | ETFRF1 (UniProt Q6IPR1) | inactive: 0.025 | inactive: 0.032 | inactive: -0.006 | inactive: -0.071 | inactive: 0.021 | – | – | inactive: 0.003 | inactive: -0.009 | inactive: -0.042
10 | FAM118A (UniProt Q9NWS6) | inactive: 0.006 | inactive: -0.153 | inactive: 0.077 | inactive: -0.007 | inactive: 0.002 | inactive: -0.017 | inactive: 0.002 | inactive: 0.008 | inactive: 0.003 | inactive: 0.03
11 | EXO1 (UniProt Q9UQ84) | inactive: -0.042 | inactive: -0.144 | inactive: 0.33 | inactive: 0.023 | – | – | – | inactive: -0.087 | inactive: -0.063 | inactive: -0.033
12 | FAM117B (UniProt Q6P1L5) | inactive: -0.073 | inactive: -0.202 | inactive: -0.022 | inactive: 0.023 | inactive: 0.029 | – | – | inactive: -0.049 | inactive: -0.012 | inactive: 0.012
13 | FAM241A (UniProt Q8N8J7) | inactive: -0.093 | inactive: -0.033 | inactive: 0.091 | inactive: 0.065 | inactive: -0.088 | inactive: 0.056 | inactive: -0.097 | – | – | inactive: -0.059
14 | EXTL3 (UniProt O43909) | inactive: -0.096 | inactive: 0.035 | inactive: -0.105 | inactive: -0.182 | inactive: -0.03 | – | – | – | – | inactive: -0.073
15 | FAM53C (UniProt Q9NYF3) | inactive: 0.001 | inactive: -0.085 | inactive: 0.095 | – | inactive: -0.078 | inactive: -0.035 | inactive: -0.032 | inactive: 0.019 | inactive: 0.204 | inactive: -0.034
16 | FAM185A (UniProt Q8N0U4) | inactive: 0.012 | inactive: -0.061 | inactive: 0.145 | inactive: -0.493 | inactive: 0.07 | – | – | – | – | inactive: 0.033
17 | ESPL1 (UniProt Q14674) | inactive: 0.044 | inactive: -0.023 | inactive: 0.129 | inactive: -0.188 | inactive: 0.053 | inactive: 0.101 | inactive: -0.013 | inactive: 0.004 | inactive: -0.009 | inactive: -0.233
18 | EVL isoform 2 (UniProt Q9UI08) | inactive: -0.023 | inactive: -0.051 | inactive: -0.002 | inactive: 0.01 | inactive: 0.015 | inactive: 0.059 | inactive: -0.077 | inactive: -0.05 | inactive: 0.047 | inactive: 0.026
19 | ETNK1 (UniProt Q9HBU6) | inactive: -0.039 | inactive: 0.002 | inactive: -0.012 | inactive: -0.032 | inactive: 0.002 | inactive: 0.009 | inactive: -0.022 | inactive: -0.087 | inactive: 0.052 | inactive: -0.008
20 | FAM160B1 (UniProt Q5W0V3) | inactive: -0.024 | inactive: -0.03 | inactive: 0.017 | inactive: -0.012 | inactive: 0.011 | inactive: 0.069 | inactive: -0.061 | inactive: -0.012 | inactive: 0 | inactive: 0.033
21 | ETHE1 (UniProt O95571) | inactive: -0.076 | inactive: 0.035 | inactive: -0.014 | inactive: -0.008 | inactive: -0.021 | inactive: 0.008 | inactive: 0.037 | inactive: 0.094 | inactive: -0.14 | inactive: 0.022
22 | EXOSC7 (UniProt Q15024) | inactive: -0.082 | inactive: 0.038 | inactive: -0.027 | inactive: -0.012 | inactive: 0.048 | inactive: 0.004 | inactive: -0.034 | inactive: 0.035 | inactive: 0.009 | inactive: 0.011
23 | FAM177A1 isoform 2 (UniProt Q8N128) | inactive: -0.057 | inactive: -0.047 | inactive: 0.007 | inactive: 0.046 | inactive: -0.074 | – | – | inactive: 0.018 | inactive: -0.055 | inactive: 0.028
24 | ESYT2 (UniProt H7BXI1) | inactive: 0.02 | inactive: 0.038 | inactive: -0.02 | inactive: 0.001 | inactive: -0.072 | inactive: 0.053 | inactive: -0.1 | inactive: -0.003 | inactive: -0.006 | inactive: 0.029
25 | F5 (UniProt P12259) | inactive: -0.028 | inactive: -0.009 | inactive: 0.049 | inactive: 0.038 | inactive: 0.037 | inactive: -0.03 | inactive: 0.02 | inactive: 0.133 | inactive: 0.058 | inactive: 0.048
26 | EXOSC1 (UniProt Q9Y3B2) | inactive: 0.064 | inactive: -0.043 | inactive: -0.027 | inactive: -0.028 | inactive: 0.01 | inactive: 0 | inactive: 0.066 | inactive: -0.031 | inactive: 0.017 | inactive: -0.016
27 | FAH isoform 2 (UniProt P16930) | inactive: -0.189 | inactive: 0.188 | – | inactive: -0.184 | inactive: 0.123 | inactive: 0.048 | inactive: 0 | inactive: 0.219 | inactive: -0.041 | inactive: -0.027
28 | FAM178B (UniProt Q8IXR5) | – | – | – | – | – | inactive: 0.058 | inactive: -0.163 | – | – | –
29 | FAM172A (UniProt Q8WUF8) | – | inactive: 0.053 | inactive: -0.276 | inactive: -0.025 | inactive: 0.147 | inactive: -0.055 | inactive: 0.097 | inactive: 0.001 | inactive: -0.123 | inactive: 0.033

2 neighbouring entries already listed:
Row | Target | log2 fold change (alvocidib) | log2 fold change (Tubastatin A) | log2 fold change [1] | log2 fold change (defactinib) | log2 fold change [2] | log2 fold change (encorafenib) | log2 fold change [3] | log2 fold change (alisertib) | log2 fold change (gefitinib) | log2 fold change [4]
16 | FAM185A (UniProt Q8N0U4) | inactive: 0.012 | inactive: -0.061 | inactive: 0.145 | inactive: -0.493 | inactive: 0.07 | – | – | – | – | inactive: 0.033
17 | ESPL1 (UniProt Q14674) | inactive: 0.044 | inactive: -0.023 | inactive: 0.129 | inactive: -0.188 | inactive: 0.053 | inactive: 0.101 | inactive: -0.013 | inactive: 0.004 | inactive: -0.009 | inactive: -0.233
